{"source": "PubChem BioAssay AID1224826 | NIAID, 2016", "aim": "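Knock-downs that raise or lower Tnf reporter signal after endotoxin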 (primary screen)", "cells": "RAW264.7 G9 macrophages from mouse bearing reporters for p65 (GFP) and the Tnf promoter (mCherry)", "reagents": "siRNA pool against mouse genes, 100 nM", "time to read-out": "16 h of LPS stimulation, after 2 days of siRNA transfection", "treatment": "bacterial lipopolysaccharide (Salmonella minnesota R595), 10 ng/ml", "measured": "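Imaged Tnf reporter mCherry in nuclei, minus background, normalised per plate to the median and expressed as robust z-scores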", "direction": "Tnf reporter robust z-score: higher = stronger Tnf promoter reporter signal after LPS", "hit rule": "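a well counts as active at a score of -1.3 or below (Tlr4 knock-down control median) or above 3 (raised signal); controls and wells holding fewer than 50 cells are excluded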", "meaning of the calls": "active = Tnf reporter clearly lowered or raised; inactive = no clear change in Tnf reporter", "note": "In all, the deposit lists about 17,000 reagents; this is a part drawn at random. About 1,110 of all reagents (6.6%) were called active. 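Active means lowered or raised reporter signal; replicate intensities are raw and not normalised per plate.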 Unmarked entries are inactive. Further read-outs or replicates are left out here."}
{"gene": "Mims1 (GeneID 108654)", "fewer than 50 cells in well": "fewer than 50 cells per well; well left out of calls"}
{"gene": "Sap30bp (GeneID 57230)", "Tnf reporter robust z-score": -0.45, "fewer than 50 cells in well": "enough cells in well"}
{"gene": "Psmb3 (GeneID 26446)", "fewer than 50 cells in well": "fewer than 50 cells per well; well left out of calls"}
{"gene": "Gtf3c4 (GeneID 269252)", "Tnf reporter robust z-score": -0.53, "fewer than 50 cells in well": "enough cells in well"}
{"gene": "Klhdc2 (GeneID 69554)", "Tnf reporter robust z-score": -0.7, "fewer than 50 cells in well": "enough cells in well"}
{"gene": "Zfp385a (GeneID 29813)", "Tnf reporter robust z-score": -0.14, "fewer than 50 cells in well": "enough cells in well"}
{"gene": "Defb19 (GeneID 246700)", "Tnf reporter robust z-score": 0.03, "fewer than 50 cells in well": "enough cells in well"}
{"gene": "Fgd3 (GeneID 30938)", "Tnf reporter robust z-score": -0.01, "fewer than 50 cells in well": "enough cells in well"}
{"gene": "Suv39h1 (GeneID 20937)", "Tnf reporter robust z-score": -0.04, "fewer than 50 cells in well": "enough cells in well"}
{"gene": "Dusp14 (GeneID 56405)", "Tnf reporter robust z-score": 0.76, "fewer than 50 cells in well": "enough cells in well"}
{"gene": "Rabggtb (GeneID 19352)", "Tnf reporter robust z-score": -0.08, "fewer than 50 cells in well": "enough cells in well"}
{"gene": "Cdk2ap2 (GeneID 52004)", "Tnf reporter robust z-score": -0.08, "fewer than 50 cells in well": "enough cells in well"}
{"gene": "Or7e169 (GeneID 258521)", "Tnf reporter robust z-score": 1.4, "fewer than 50 cells in well": "enough cells in well"}
{"gene": "Slc6a7 (GeneID 240332)", "Tnf reporter robust z-score": "-1.5 (active)", "fewer than 50 cells in well": "enough cells in well"}
